The list shows a part of the results. Results with a measured potency or affinity are listed apart. Entries without a call are filed as inconclusive in the source.
assay: PubChem AID 2003; conditions: H4 cells, SNCA 5'UTR luciferase reporter, luminescence; at 12 µM (top of the series) unless noted

First: N=c1oc2c3c4c(cc2cc1C(=O)Nc1ccccc1)CCCN4CCC3
Second: O=c1cccccc1NN=C1CCCCCC1
The activation of the first is higher: 183% for the first, 77.7% for the second.

First: COc1cc(OC)cc(C(=O)Oc2ccc(/C=N/Nc3nc4ccccc4s3)cc2OC)c1
Second: COc1ccc(C(=O)n2c(N)nc3ccccc32)cc1OC
The activation of the first is higher: 90.5% for the first, 56.6% for the second.

Compared with `Cc1c(C(=O)NCc2ccoc2)oc2ccc3c(c12)C(=O)CC(C)(C)O3`, `COCc1nc2oc3ccc(C)cc3c(=O)c2cc1C(=O)OC` is higher in activation: 31.4% for the first, 87.3% for the second.

Going from `Cc1cccc(N(C)C(=O)c2cc3cc4ccc(C)cc4nc3o2)c1` to `Cc1ccc(C)c(N=Nc2nc3ccccc3n2C)c1`, the activation falls from 16% to 2.5%.

First: O=C(/C=C/c1cnc2ccccc2n1)NC12CC3CC(CC(C3)C1)C2
Second: CC1CCCN(C(=O)CSc2cnc3ccccc3n2)C1 (configuration not stated)
The activation of the first is higher: 65.7% for the first, 31.4% for the second.

Going from `O=C(Nc1ccc(Br)cc1)c1cnc[nH]1` to `O=C(Nc1ccc2cn[nH]c2c1)c1ccccc1F`, the activation falls from 67.8% to 40.7%.

Going from `CCC1=[N+](CC(=O)c2ccc(C)cc2)CCn2c(C)ccc21` to `CCc1ccc(-c2ccc(C(=O)C(F)(F)F)[nH]2)cc1`, the activation falls from 84.3% to 66.1%.

First: Cc1cc(=O)n2nc(-c3ccc(C(F)(F)F)cc3)sc2n1
Second: N#Cc1c(N2CCOCC2)nsc1-c1ccc(C(F)(F)F)cc1
The activation of the first is lower: 37.2% for the first, 53.5% for the second.

Compared with `Cc1c(C(=O)/C=C/c2cccs2)oc2ccc(F)cc12`, `CC(=O)c1sc2nc(-c3cccs3)ccc2c1N` is lower in activation: 82.7% for the first, 68.7% for the second.

First: COc1ccc(NC(=O)NC(=O)c2ccccc2)cc1
Second: Cc1ccc(NC(=O)CCOc2ccccc2)cc1
The activation of the first is lower: 34.1% for the first, 62.1% for the second.

First: Cc1[nH]c2ccccc2c1C(=O)CSc1nc2ccccc2c(=O)n1CCCN1CCOCC1
Second: Cc1nc2ccccc2c(=O)n1NC(=O)/C=C/c1ccccc1Cl
The activation of the first is lower: -78.4% for the first, 71.1% for the second.

Compared with `O=C(NCCc1ccccc1)c1ccc(Cl)nc1`, `COc1ccc(CCNC(=O)c2ccc3c(c2)OCCO3)cc1` is higher in activation: 3.3% for the first, 59% for the second.

Going from `Nc1ncn([C@H]2C[C@H](O)[C@@H](CO)O2)c(=O)n1` to `CC1CC1C(=O)OCc1cc(=O)n2cc(Br)ccc2n1` (configuration not stated), the activation falls from 256% to 29.8%.

Going from `COc1ccc(N/C=C\C(=O)c2ccc3c(c2)OCO3)cc1` to `O=C(N/N=C/c1ccc2c(c1)OCO2)c1ccc(Br)o1`, the activation rises from 37.2% to 80.8%.

Going from `CCOC(=O)c1c(C)[nH]c(C2=NNC(=NC(C)COC)SC2)c1C` (configuration not stated) to `CC(C)N=C1NN=C(c2ccc(Cl)c(Cl)c2)CS1`, the activation rises from 7.5% to 29.9%.

First: CCOC(=O)N/N=C1\CCc2ccccc21
Second: O=[N+]([O-])c1ccccc1N/N=C1\CCc2ccccc21
The activation of the first is lower: 46.5% for the first, 109% for the second.

Going from `CN(C)c1ccc(N=Cc2nc(-c3ccccc3)oc2OC(=O)c2cccc(Br)c2)cc1` to `CCOc1ccc(-c2cc(C(=O)N/N=C(\C)c3cccnc3)c3ccccc3n2)cc1`, the activation falls from 120% to 16.1%.

Going from `COc1ccccc1C(=O)COC(=O)c1ccc(N(C)C)cc1` to `COC(=O)c1ccccc1NC(=O)c1cccc(COc2ccccc2Cl)c1`, the activation falls from 65.6% to -16.8%.

First: Cc1ccc(/C=N/N=C/c2ccc(C)s2)s1
Second: CN(C)/C=N/c1cnc(C(=O)c2ccc(Cl)cc2)n1C
The activation of the first is lower: 41.6% for the first, 56.1% for the second.

Going from `CC(C)(C)c1ccc(OCCn2ccccc2=O)cc1` to `COc1ccc(-c2ncc3ccccn23)cc1`, the activation rises from 42% to 47.2%.

First: COc1cc(/C=C2/C(=N)N3N=C(CC(=O)N4CCOCC4)SC3=NC2=O)ccc1OCc1ccccc1
Second: Cc1c(C(=O)N2CCOCC2)sc2nc(-c3ccccc3)cn12
The activation of the first is lower: 45.3% for the first, 59.2% for the second.

Compared with `CCOC(=O)c1cc(-c2ccc3c(c2)OCCO3)n[nH]1`, `Cc1cc(C(=O)COC(=O)C2=COCCO2)c(C)n1-c1cccc(F)c1` is lower in activation: 34.9% for the first, -11.2% for the second.

Compared with `O=c1cccc2n1Cc1cc3ccccc3nc1-2`, `O=C(Nc1ccc2ccccc2n1)c1ccccc1Br` is lower in activation: 94% for the first, 52.5% for the second.

First: O=c1n(-c2ccc(Br)cc2)cnn1-c1ncccc1[N+](=O)[O-]
Second: COc1ccc(-n2ncc3c(N4CCc5ccccc54)ncnc32)cc1
The activation of the first is higher: 69.8% for the first, -17.5% for the second.

First: O=C(CSc1ccc(-c2ccccc2)nn1)N1CCCCC1
Second: c1ccc(CSc2ccc(-c3ccc4c(c3)OCO4)nn2)cc1
The activation of the first is lower: 55.9% for the first, 77.8% for the second.

First: Fc1ccc(CSc2nnc(-c3ccccn3)o2)cc1
Second: Nc1ccc2nc(-c3ccccn3)[nH]c2c1
The activation of the first is lower: 47% for the first, 84.4% for the second.

Going from `Clc1ccc(-c2cn3c(n2)CCC3)cc1` to `Clc1ccc2nc(-c3ccc(Cl)nc3)[nH]c2c1`, the activation rises from 51.2% to 93.2%.

Going from `Nc1nn(-c2cccc(F)n2)cc1-c1ccccc1` to `Cc1nn(-c2nc3ccccc3s2)c(N)c1-c1ccccc1`, the activation rises from 31% to 110%.

Compared with `O=C(O)c1ccc(N/N=C/C(Br)=C/c2ccccc2)cc1`, `O=C(Nc1ccc(F)cc1)/C(Cl)=C/c1ccccc1` is higher in activation: 160% for the first, 202% for the second.

First: Oc1ccc(/C=N/Nc2ccc(C(F)(F)F)cn2)cc1
Second: NC(=O)c1ccccc1N=Cc1ccc2ccccc2c1
The activation of the first is higher: 161% for the first, 13.5% for the second.

First: Cc1ccc(-c2nc(N/N=C/c3ccccc3[N+](=O)[O-])c3ccccc3n2)cc1
Second: COc1ccc2c(c1OC)C(=O)OC2Nc1nc(-c2ccc(-c3ccccc3)cc2)cs1 (configuration not stated)
The activation of the first is lower: 61.9% for the first, 73% for the second.

First: O=C1C2C3CCC(C3)C2C(=O)N1c1ccc(OS(=O)(=O)c2ccccc2)cc1 (configuration not stated)
Second: CCOc1ccc(N2C(=O)/C(=C/c3ccccc3)N=C2SC)cc1
The activation of the first is higher: 73.3% for the first, 12.7% for the second.

Going from `C=CCSc1nnc2c(n1)[nH]c1c(C)cccc12` to `Cc1cccc(Nc2nnc(SCC3CCCCO3)s2)c1` (configuration not stated), the activation rises from 71.3% to 76.9%.

Going from `Cn1ccnc1SCC(=O)c1c[nH]c2ccccc12` to `Cn1c(C(=O)NCCc2c[nH]c3ccccc23)cc2sccc21`, the activation rises from 24.5% to 90.4%.

First: CN=c1scc(-c2ccco2)n1/N=C/c1ccc(O)c(O)c1
Second: CC(=Nc1ccccc1)c1sc2ccccc2c1O
The activation of the first is higher: 104% for the first, 0.5% for the second.

Going from `CCCn1c(C)cc(C(=O)COc2ncnc3sccc23)c1C` to `CCOc1c2ccc(C(=O)NCCc3cccs3)cc2nn1CC`, the activation rises from 34% to 43.7%.

Going from `CCOC(=O)c1sc(NC(=O)C(C)(C)C)cc1C` to `CCOC(=O)Nc1ccc2nc(N3CCCCCC3)sc2c1`, the activation falls from 105% to -20.4%.

Going from `COc1ccc2c(c1OC)C(=O)N1c3ccccc3SC21` (configuration not stated) to `COc1ccc(N2Cc3ccc(OC)c(OC)c3C2=O)cc1`, the activation falls from 45.5% to 22.5%.

Compared with `Cn1cccc1CNC(=O)Nc1ccc(Cl)c(Cl)c1`, `O=C(Nc1ccc(Cl)c(Cl)c1)c1ccc(Cn2cc(Cl)cn2)cc1` is lower in activation: 79.4% for the first, 75.6% for the second.

First: O=C(Nc1nnc(C2CC2)s1)C1Cc2ccccc2CN1S(=O)(=O)c1ccccc1F (configuration not stated)
Second: O=C(/C=C/c1c(F)cccc1Cl)Nc1nc2ccccc2[nH]1
The activation of the first is lower: 33.9% for the first, 89.9% for the second.

First: O=C(Nc1cccnc1)c1cc(-c2cc(Cl)ccc2O)n[nH]1
Second: O=C(Nc1cccc(Cl)c1)c1cnn2cccnc12
The activation of the first is higher: 174% for the first, 98.6% for the second.

Compared with `CN1C(=O)/C(=C/C=C2\SCCN2C)N(C)C1=S`, `Cc1ccc(/C=c2/sc3n(c2=O)CCCN=3)o1` is lower in activation: 76.8% for the first, 27.9% for the second.

First: Cc1ccc(NC(=O)NCC2CC2(Cl)Cl)cc1 (configuration not stated)
Second: CC(C)c1ccc(/C=N/NC(=O)C2CCCC2)cc1
The activation of the first is lower: 48.1% for the first, 110% for the second.

Going from `OCCCN1c2ccccc2Nc2nnc(-c3ccccc3)cc21` to `Clc1ccc2nnnc(-c3ccccc3)c2c1`, the activation falls from 129% to 17.2%.

First: Cc1cc(=O)oc2cc(OCC3CC(c4ccccc4Cl)=NO3)ccc12 (configuration not stated)
Second: CCOC(=O)c1ccccc1NC1c2ccccc2C(=O)N1c1ccc(C)cn1 (configuration not stated)
The activation of the first is lower: -36% for the first, 21.7% for the second.

Compared with `Nc1c(C(=O)N2CCCCC2)sc2nc3c(cc12)CCCC3`, `Nc1nc(-c2sc3nc4c(cc3c2N)CCCC4)nc(N2CCOCC2)n1` is lower in activation: 49.6% for the first, 46.9% for the second.

Going from `Cn1ncc2c(Nc3ccc4ccccc4c3)ncnc21` to `CC(=O)Nc1ccc(O)c(-c2nc3ccccc3s2)c1`, the activation rises from 104% to 175%.

First: COc1cc2sc3ccc(-c4ccc5[nH]ccc5c4)cc3c(=O)c2cc1OC
Second: COc1ccc(/C=C2\OC(=O)c3c(OC)cccc32)cc1OC
The activation of the first is lower: 64.6% for the first, 65.3% for the second.

Compared with `Oc1cccc2c(NC(=S)Nc3ccc(OC(F)F)cc3)cccc12`, `COc1ccc(/C=C/C(=O)c2c(C)nc3ccccn23)cc1` is higher in activation: 18.3% for the first, 126% for the second.

Compared with `COc1ccc(/C=C/C2=NC(=C\N(C)C)/C(=O)O2)cc1`, `CCOc1ccc(/C=C2\CCC(C3CCCC3)C2=O)cc1` (configuration not stated) is lower in activation: 71.3% for the first, 69.4% for the second.

First: C/C(=N\Nc1nc2c(s1)CCCC2)c1ccccc1
Second: Cc1sc(NC(=O)C2CCCCC2)c(C#N)c1-c1ccccc1
The activation of the first is higher: 72.1% for the first, 45.5% for the second.

Compared with `c1ccc(C2=NNC(c3ccccn3)=NN2)nc1`, `O=C(Cc1nc2ccccc2[nH]c1=O)c1ccccc1` is higher in activation: -51.3% for the first, -27.1% for the second.

First: CCOc1ccc(C2=Nc3ccccc3C(c3ccc(N4CCOCC4)cc3)=NN2)cc1
Second: Cc1cc(/C=C2/C(=O)NN(c3ccccc3)C2=O)c(C)n1-c1ccc(O)cc1
The activation of the first is higher: 48.1% for the first, -4.3% for the second.

Compared with `Cc1c(-c2nc(N)nc(Nc3ccccc3F)n2)oc2ccccc12`, `Nc1nc(NC(=O)c2cccs2)nn1-c1ccccc1` is higher in activation: 29.2% for the first, 39.1% for the second.

First: Cn1cc(/C=N\NC(=O)c2cccs2)c2ccccc21
Second: O=C(Nc1nc(-c2ccccc2)ns1)c1cccs1
The activation of the first is lower: 44.9% for the first, 117% for the second.

Going from `Cc1ccc(SSc2cc(C)ccc2N)c(N)c1` to `c1csc(CSc2nc3ccccc3s2)c1`, the activation rises from 62.7% to 91.6%.

First: CCCn1cnc2cc(NCc3cccs3)ccc21
Second: CCC(C)C(=O)N1CCCC(c2nc(-c3cccs3)no2)C1 (configuration not stated)
The activation of the first is lower: 53.4% for the first, 53.8% for the second.

First: Cc1csc(NC(=O)C2=COCCO2)n1
Second: COC(=O)CSc1nc2cc3c(cc2cc1C#N)OCO3
The activation of the first is lower: 34.1% for the first, 116% for the second.

Going from `CC1CCc2c(sc(NC(=O)c3nc4ncccn4n3)c2C#N)C1` (configuration not stated) to `O=C(C1CC(c2ccc(F)cc2)=NO1)N1CCCCC1` (configuration not stated), the activation rises from 22.6% to 28.1%.

First: CCSc1ncc(/C=N/Nc2ccc([N+](=O)[O-])cc2)n1C
Second: [O-][n+]1onc2c3ccnnc3ccc21
The activation of the first is higher: 164% [at 6 µM] for the first, 62.2% [at 6 µM] for the second.

Going from `CC(C)c1ccc(C(=O)NNC(=O)C2C3CCC(C3)C2C(=O)O)cc1` (configuration not stated) to `O=C(NC(=S)Nc1nc2c(s1)CCCC2)c1ccccc1`, the activation falls from 166% [at 6 µM] to 151% [at 6 µM].

Reference: PubChem BioAssay AID2003 (Broad Institute, 2009)
